At least one compound was matched to its structure with a doubt left.
Experiment: Dissolution test of crude amlodipine and AML/GP composites in distilled water
Format: physicochemical
Conditions: room temperature, 250 rpm

## CCOC(=O)C1=C(COCCN)NC(C)=C(C(=O)OC)C1c1ccccc1Cl (stereo not shown) [crude amlodipine, amlodipine]
  amlodipine dissolved after 60 minutes: 80%

Reference: patent US20220192985A1, “METHOD OF PRODUCTION OF A COMPOSITE OF YEAST-DERIVED BETA GLUCAN PARTICLE WITH INCORPORATED POORLY-WATER-SOLUBLE LOW-MOLECULAR-WEIGHT COMPOUND, PHARMACEUTICAL PREPARATION AND USE THEREOF” (VYSOKA SKOLA CHEMICKO-TECHNOLOGICKA V PRAZE, priority 2019, published 2022)
